The assay concerns the target TAP-Rev7 (human Rev7 fused at its N-terminus with a tandem affinity purification tag) (human) (UniProt Q9UI95). The experiment in a line: affinity purification with mass spectrometry; tandem affinity purification of TAP-Rev7 from stable 293T cells (IgG-Sepharose, TEV, calmodulin-Sepharose), with or without UV 10 J/m^2; bands cut from the gel of the unirradiated sample, nano-LC/MS/MS.

The chains behind the UniProt entries cited, without tags or fusion partners.
UniProt Q9UI95: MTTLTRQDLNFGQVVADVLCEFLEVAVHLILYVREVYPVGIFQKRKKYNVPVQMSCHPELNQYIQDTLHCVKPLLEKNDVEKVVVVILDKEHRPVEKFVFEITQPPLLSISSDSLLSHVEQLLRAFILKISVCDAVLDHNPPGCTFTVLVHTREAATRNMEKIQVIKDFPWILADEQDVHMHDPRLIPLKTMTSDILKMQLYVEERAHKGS

Here are results for one molecule from publication PMC4055408.

Results are given in words; binding and its absence hold for the method and conditions named. In cells and extracts the contact can be indirect. A yes stands for co-enrichment or nearness to the bait. Other partners may have been found.

B1: ZNF828/CAMP, endogenous (protein, UniProt Q96JM3 1-812)
chain: MEAFQELRKPSARLECDHCSFRGTDYENVQIHMGTIHPEFCDEMDAGGLGKMIFYQKSAKLFHCHKCFFTSKMYSNVYYHITSKHASPDKWNDKPKNQLNKETDPVKSPPLPEHQKIPCNSAEPKSIPALSMETQKLGSVLSPESPKPTPLTPLEPQKPGSVVSPELQTPLPSPEPSKPASVSSPEPPKSVPVCESQKLAPVPSPEPQKPAPVSPESVKATLSNPKPQKQSHFPETLGPPSASSPESPVLAASPEPWGPSPAASPESRKSARTTSPEPRKPSPSESPEPWKPFPAVSPEPRRPAPAVSPGSWKPGPPGSPRPWKSNPSASSGPWKPAKPAPSVSPGPWKPIPSVSPGPWKPTPSVSSASWKSSSVSPSSWKSPPASPESWKSGPPELRKTAPTLSPEHWKAVPPVSPELRKPGPPLSPEIRSPAGSPELRKPSGSPDLWKLSPDQRKTSPASLDFPESQKSSRGGSPDLWKSSFFIEPQKPVFPETRKPGPSGPSESPKAASDIWKPVLSIDTEPRKPALFPEPAKTAPPASPEARKRALFPEPRKHALFPELPKSALFSESQKAVELGDELQIDAIDDQKCDILVQEELLASPKKLLEDTLFPSSKKLKKDNQESSDAELSSSEYIKTDLDAMDIKGQESSSDQEQVDVESIDFSKENKMDMTSPEQSRNVLQFTEEKEAFISEEEIAKYMKRGKGKYYCKICCCRAMKKGAVLHHLVNKHNVHSPYKCTICGKAFLLESLLKNHVAAHGQSLLKCPRCNFESNFPRGFKKHLTHCQSRHNEEANKKLMEALEPPLEEQQI
Regarding B1, the binding result was “binds”.
